Test results reported in publication PMC5873253.
Construct, isoform or probe ends are uncertain for at least one entry. Negatives hold for the conditions tested.

Sequences of proteins named here, by UniProt entry; tags and fusion partners are left off. A change or cut given only in a name is not applied to a line headed by its entry.
UniProt Q6Z6W2: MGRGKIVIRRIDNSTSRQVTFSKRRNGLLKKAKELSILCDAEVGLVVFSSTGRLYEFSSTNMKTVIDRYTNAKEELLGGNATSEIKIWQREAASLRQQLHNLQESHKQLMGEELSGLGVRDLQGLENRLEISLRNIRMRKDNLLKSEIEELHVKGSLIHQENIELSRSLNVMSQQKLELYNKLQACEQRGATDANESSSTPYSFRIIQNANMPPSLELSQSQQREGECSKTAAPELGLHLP

Target: OsMADS57 (Oryza sativa) (UniProt Q6Z6W2)
Test: EMSA
Details: text mentions mutant probe with labeled WRKY94S2, described as negative control without shifted band; EMSA: LightShift Chemiluminescent kit (Pierce), buffer not stated; recombinant protein; protein details: N-terminal GST

“TTAAAGGGCCCCCTTTAGTTAAAGGGCCCCCTTTAGTTAAAGGGCCCCCTTTAG (double strand) [WRKY94S2 mutant (57mP)]”: no binding.
